The record followed here is PMC7265429, “Characterization of a new small-molecule inhibitor of HDAC6 in glioblastoma” (Cell Death & Disease, 2020).

One may read the IC50 as the concentration needed to halve the response being measured. A high value points to a need for much substance.

Test [1] concerns U87-MG cells. Briefly: Dose-response MTT cell viability assay, U87-MG. Format: cell-based. The conditions noted are these: Homo sapiens, U-87 MG, 72 h, Fig. 2d. How it is done:
(§1) Glioma-cell lines were seeded at a density of 1.5 × 10^3 cells/well in 96-well plates, with six replicates per condition. […] Cell viability was determined by MTT assay at 72 h after treatment. For this, MTT (3-(4,5-dimethyl-2-thiazolyl)-2,5-diphenyl-2H-tetrazolium bromide) reagent was added and, after a 3 h incubation at 37 °C and 5% CO2, media was removed and the formed crystals were resuspended in DMSO. Plates were measured at 570 nm using a spectrophotometer. Results were analyzed by GraphPad Prism software and IC50 values were calculated.

Test [2] relates to U251-MG cells. Briefly: Dose-response MTT cell viability assay, U251-MG. It counts as cell-based. Particulars: Homo sapiens, U-251, 72 h, Fig. 2d. On the procedure: as §1
(In general: Tetrazolium assays rely on reduction of a dye to a coloured formazan, in cell work by metabolically active cells.)

In test [3] the test system is U373-MG cells. The test can be described thus: Dose-response MTT cell viability assay, U373-MG. Particulars: Homo sapiens, 72 h, Fig. 2d. Format: cell-based. How it is done: as §1
Test [4] deals with T98-G cells. The test can be described thus: Dose-response MTT cell viability assay, T98-G. Particulars: Homo sapiens, T98G, 72 h, Fig. 2d. Format: cell-based. On the procedure:
as §1

Test [5] has as its system A172 cells. The test can be described thus: Dose-response MTT cell viability assay, A172. It counts as cell-based. Particulars: Homo sapiens, A 172, 72 h, Fig. 2d. How it is done: as §1
Test [6] concerns patient-derived GNS166 stem cells. The test can be described thus: Dose-response MTT cell viability assay, GNS166. Particulars: Homo sapiens, 72 h, Fig. 2d. It counts as cell-based. On the procedure:
as §1

In test [7] the test system is patient-derived GNS179 stem cells. The test can be described thus: Dose-response MTT cell viability assay, GNS179. The conditions noted are these: Homo sapiens, 72 h, Fig. 2d. It counts as cell-based. How it is done: as §1
For test [8], the system named is GNS166 cells. The test can be described thus: Microarray whole-transcriptome gene expression analysis. Format: cell-based, human. How it is done: Whole-transcriptome analysis was performed from 300 ng of RNA using HuGene-2_0-st-v1 expression array (Affymetrix), which covers 48,226 transcripts. Raw data were first checked for quality purposes through the Affymetrix® Expression Console™ Software v1.4.1 and TAC software v4.0. Then, data were normalized using the Robust Multi-array Average (RMA) and analyzed by Limma tool. Probesets with FDR-corrected p-values smaller than 0.05 were selected. Functional enrichment on Gene Ontology (GO) biological processes was performed on a smaller subset of the differentially expressed genes (corrected p-value < 0.001) by means of Broad Institute GSEA. […] The data that support this study have been deposited in NCBI´s Gene Expression Omnibus and are accessible through GEO series accession number GSE143887.

The mark [9] stands for this setting: sheet DMSO-SAHA_DOWN, microarray.

Regarding `O=C(CCCCCCC(=O)Nc1ccccc1)NO` [SAHA, Suberoylanilide hydroxamic acid], the IC50 in test [1] turned out to be 9.99 µM; in test [2], 22.1 µM; in test [3], 47.1 µM; in test [4], 4.69 µM; in test [5], 4.29 µM; in test [6] it was 41.1 µM. The compound also had an IC50 in test [7] of 11.2 µM. In test [8] (5 µM SAHA vs DMSO, transcript TC0800008028.hg.1), the “logFC PKIA” value was found to be 2.2097. Also, the “logFC, unannotated transcript” value in test [8] (DMSO vs SAHA, downregulated, transcript 23074032) is given as -2.205. Besides, the “logFC UFC1” value in test [8] (DMSO vs SAHA, downregulated, transcript TC0100010334.hg.1) was -2.209. Also, the “logFC MZT2B” value in test [8] (DMSO vs SAHA, downregulated, transcript TC0200009281.hg.1) was -1.123. The “logFC HIST2H2BF (transcript TC0100015696.hg.1)” value in test [8] (setting [9]) is recorded as -1.121. Also, the “logFC NCAPG (transcript TC0400006994.hg.1)” value in test [8] (setting [9]) is listed as -0.9992. Further, in test [8] (setting [9]), the “logFC RNH1 (transcript TC1100009674.hg.1)” value is -0.9987. For the same compound, the “logFC CCNYL1” value in test [8] (transcript TC0200010615.hg.1, DMSO vs 5 µM SAHA, upregulated genes) was determined as 1.118. In addition, the “logFC GNPTAB” value in test [8] (transcript TC1200011711.hg.1, DMSO vs 5 µM SAHA, upregulated genes) is 1.119.
